Where a chain is given by its changes, count along the chain named. These are yes or no findings as the source states them, for the method shown. Binding seen in cells or lysates may run through a third protein. Some entries that bind do so weakly or less than the wild type. Values belong to the binder of their own block, whether it stands above or below them.
Assays:
[1] = target: polycystin-1 (human, RCTE cells) (human (endogenous in RCTE)) (UniProt P98161); assay: co-IP; PC1 immunoprecipitated with NM002 pAb from lysates of polarized RCTE or MO6-G3 cells (5 days post-confluency); lysis buffer 0.5% NP40, 10 mM Tris-HCl pH 7.4, 150 mM NaCl, 5 mM EDTA, 60 mM octylglucoside; 4°C; immunoblot; normal rabbit IgG as negative control
[2] = target: epidermal growth factor receptor (human, RCTE cells) (human (endogenous in RCTE)) (UniProt P00533); assay: co-IP; EGFR immunoprecipitated with Santa Cruz pAb from lysates of polarized RCTE or MO6-G3 cells (5 days post-confluency); lysis buffer 0.5% NP40, 10 mM Tris-HCl pH 7.4, 150 mM NaCl, 5 mM EDTA, 60 mM octylglucoside; 4°C; immunoblot; normal rabbit IgG as negative control
[3] = target: polycystin-1 (mouse, MO6-G3 odontoblasts) (mouse (endogenous in MO6-G3)) (UniProt O08852); assay: co-IP; PC1 immunoprecipitated with NM002 pAb from lysates of polarized RCTE or MO6-G3 cells (5 days post-confluency); lysis buffer 0.5% NP40, 10 mM Tris-HCl pH 7.4, 150 mM NaCl, 5 mM EDTA, 60 mM octylglucoside; 4°C; immunoblot; normal rabbit IgG as negative control
[4] = target: epidermal growth factor receptor (mouse, MO6-G3 odontoblasts) (mouse (endogenous in MO6-G3)) (UniProt Q01279); assay: co-IP; EGFR immunoprecipitated with Santa Cruz pAb from lysates of polarized RCTE or MO6-G3 cells (5 days post-confluency); lysis buffer 0.5% NP40, 10 mM Tris-HCl pH 7.4, 150 mM NaCl, 5 mM EDTA, 60 mM octylglucoside; 4°C; immunoblot; normal rabbit IgG as negative control

Chains of the proteins cited; added tags and fusions are not shown. Residues count along the entry.
UniProt O08852, residues 24-4293: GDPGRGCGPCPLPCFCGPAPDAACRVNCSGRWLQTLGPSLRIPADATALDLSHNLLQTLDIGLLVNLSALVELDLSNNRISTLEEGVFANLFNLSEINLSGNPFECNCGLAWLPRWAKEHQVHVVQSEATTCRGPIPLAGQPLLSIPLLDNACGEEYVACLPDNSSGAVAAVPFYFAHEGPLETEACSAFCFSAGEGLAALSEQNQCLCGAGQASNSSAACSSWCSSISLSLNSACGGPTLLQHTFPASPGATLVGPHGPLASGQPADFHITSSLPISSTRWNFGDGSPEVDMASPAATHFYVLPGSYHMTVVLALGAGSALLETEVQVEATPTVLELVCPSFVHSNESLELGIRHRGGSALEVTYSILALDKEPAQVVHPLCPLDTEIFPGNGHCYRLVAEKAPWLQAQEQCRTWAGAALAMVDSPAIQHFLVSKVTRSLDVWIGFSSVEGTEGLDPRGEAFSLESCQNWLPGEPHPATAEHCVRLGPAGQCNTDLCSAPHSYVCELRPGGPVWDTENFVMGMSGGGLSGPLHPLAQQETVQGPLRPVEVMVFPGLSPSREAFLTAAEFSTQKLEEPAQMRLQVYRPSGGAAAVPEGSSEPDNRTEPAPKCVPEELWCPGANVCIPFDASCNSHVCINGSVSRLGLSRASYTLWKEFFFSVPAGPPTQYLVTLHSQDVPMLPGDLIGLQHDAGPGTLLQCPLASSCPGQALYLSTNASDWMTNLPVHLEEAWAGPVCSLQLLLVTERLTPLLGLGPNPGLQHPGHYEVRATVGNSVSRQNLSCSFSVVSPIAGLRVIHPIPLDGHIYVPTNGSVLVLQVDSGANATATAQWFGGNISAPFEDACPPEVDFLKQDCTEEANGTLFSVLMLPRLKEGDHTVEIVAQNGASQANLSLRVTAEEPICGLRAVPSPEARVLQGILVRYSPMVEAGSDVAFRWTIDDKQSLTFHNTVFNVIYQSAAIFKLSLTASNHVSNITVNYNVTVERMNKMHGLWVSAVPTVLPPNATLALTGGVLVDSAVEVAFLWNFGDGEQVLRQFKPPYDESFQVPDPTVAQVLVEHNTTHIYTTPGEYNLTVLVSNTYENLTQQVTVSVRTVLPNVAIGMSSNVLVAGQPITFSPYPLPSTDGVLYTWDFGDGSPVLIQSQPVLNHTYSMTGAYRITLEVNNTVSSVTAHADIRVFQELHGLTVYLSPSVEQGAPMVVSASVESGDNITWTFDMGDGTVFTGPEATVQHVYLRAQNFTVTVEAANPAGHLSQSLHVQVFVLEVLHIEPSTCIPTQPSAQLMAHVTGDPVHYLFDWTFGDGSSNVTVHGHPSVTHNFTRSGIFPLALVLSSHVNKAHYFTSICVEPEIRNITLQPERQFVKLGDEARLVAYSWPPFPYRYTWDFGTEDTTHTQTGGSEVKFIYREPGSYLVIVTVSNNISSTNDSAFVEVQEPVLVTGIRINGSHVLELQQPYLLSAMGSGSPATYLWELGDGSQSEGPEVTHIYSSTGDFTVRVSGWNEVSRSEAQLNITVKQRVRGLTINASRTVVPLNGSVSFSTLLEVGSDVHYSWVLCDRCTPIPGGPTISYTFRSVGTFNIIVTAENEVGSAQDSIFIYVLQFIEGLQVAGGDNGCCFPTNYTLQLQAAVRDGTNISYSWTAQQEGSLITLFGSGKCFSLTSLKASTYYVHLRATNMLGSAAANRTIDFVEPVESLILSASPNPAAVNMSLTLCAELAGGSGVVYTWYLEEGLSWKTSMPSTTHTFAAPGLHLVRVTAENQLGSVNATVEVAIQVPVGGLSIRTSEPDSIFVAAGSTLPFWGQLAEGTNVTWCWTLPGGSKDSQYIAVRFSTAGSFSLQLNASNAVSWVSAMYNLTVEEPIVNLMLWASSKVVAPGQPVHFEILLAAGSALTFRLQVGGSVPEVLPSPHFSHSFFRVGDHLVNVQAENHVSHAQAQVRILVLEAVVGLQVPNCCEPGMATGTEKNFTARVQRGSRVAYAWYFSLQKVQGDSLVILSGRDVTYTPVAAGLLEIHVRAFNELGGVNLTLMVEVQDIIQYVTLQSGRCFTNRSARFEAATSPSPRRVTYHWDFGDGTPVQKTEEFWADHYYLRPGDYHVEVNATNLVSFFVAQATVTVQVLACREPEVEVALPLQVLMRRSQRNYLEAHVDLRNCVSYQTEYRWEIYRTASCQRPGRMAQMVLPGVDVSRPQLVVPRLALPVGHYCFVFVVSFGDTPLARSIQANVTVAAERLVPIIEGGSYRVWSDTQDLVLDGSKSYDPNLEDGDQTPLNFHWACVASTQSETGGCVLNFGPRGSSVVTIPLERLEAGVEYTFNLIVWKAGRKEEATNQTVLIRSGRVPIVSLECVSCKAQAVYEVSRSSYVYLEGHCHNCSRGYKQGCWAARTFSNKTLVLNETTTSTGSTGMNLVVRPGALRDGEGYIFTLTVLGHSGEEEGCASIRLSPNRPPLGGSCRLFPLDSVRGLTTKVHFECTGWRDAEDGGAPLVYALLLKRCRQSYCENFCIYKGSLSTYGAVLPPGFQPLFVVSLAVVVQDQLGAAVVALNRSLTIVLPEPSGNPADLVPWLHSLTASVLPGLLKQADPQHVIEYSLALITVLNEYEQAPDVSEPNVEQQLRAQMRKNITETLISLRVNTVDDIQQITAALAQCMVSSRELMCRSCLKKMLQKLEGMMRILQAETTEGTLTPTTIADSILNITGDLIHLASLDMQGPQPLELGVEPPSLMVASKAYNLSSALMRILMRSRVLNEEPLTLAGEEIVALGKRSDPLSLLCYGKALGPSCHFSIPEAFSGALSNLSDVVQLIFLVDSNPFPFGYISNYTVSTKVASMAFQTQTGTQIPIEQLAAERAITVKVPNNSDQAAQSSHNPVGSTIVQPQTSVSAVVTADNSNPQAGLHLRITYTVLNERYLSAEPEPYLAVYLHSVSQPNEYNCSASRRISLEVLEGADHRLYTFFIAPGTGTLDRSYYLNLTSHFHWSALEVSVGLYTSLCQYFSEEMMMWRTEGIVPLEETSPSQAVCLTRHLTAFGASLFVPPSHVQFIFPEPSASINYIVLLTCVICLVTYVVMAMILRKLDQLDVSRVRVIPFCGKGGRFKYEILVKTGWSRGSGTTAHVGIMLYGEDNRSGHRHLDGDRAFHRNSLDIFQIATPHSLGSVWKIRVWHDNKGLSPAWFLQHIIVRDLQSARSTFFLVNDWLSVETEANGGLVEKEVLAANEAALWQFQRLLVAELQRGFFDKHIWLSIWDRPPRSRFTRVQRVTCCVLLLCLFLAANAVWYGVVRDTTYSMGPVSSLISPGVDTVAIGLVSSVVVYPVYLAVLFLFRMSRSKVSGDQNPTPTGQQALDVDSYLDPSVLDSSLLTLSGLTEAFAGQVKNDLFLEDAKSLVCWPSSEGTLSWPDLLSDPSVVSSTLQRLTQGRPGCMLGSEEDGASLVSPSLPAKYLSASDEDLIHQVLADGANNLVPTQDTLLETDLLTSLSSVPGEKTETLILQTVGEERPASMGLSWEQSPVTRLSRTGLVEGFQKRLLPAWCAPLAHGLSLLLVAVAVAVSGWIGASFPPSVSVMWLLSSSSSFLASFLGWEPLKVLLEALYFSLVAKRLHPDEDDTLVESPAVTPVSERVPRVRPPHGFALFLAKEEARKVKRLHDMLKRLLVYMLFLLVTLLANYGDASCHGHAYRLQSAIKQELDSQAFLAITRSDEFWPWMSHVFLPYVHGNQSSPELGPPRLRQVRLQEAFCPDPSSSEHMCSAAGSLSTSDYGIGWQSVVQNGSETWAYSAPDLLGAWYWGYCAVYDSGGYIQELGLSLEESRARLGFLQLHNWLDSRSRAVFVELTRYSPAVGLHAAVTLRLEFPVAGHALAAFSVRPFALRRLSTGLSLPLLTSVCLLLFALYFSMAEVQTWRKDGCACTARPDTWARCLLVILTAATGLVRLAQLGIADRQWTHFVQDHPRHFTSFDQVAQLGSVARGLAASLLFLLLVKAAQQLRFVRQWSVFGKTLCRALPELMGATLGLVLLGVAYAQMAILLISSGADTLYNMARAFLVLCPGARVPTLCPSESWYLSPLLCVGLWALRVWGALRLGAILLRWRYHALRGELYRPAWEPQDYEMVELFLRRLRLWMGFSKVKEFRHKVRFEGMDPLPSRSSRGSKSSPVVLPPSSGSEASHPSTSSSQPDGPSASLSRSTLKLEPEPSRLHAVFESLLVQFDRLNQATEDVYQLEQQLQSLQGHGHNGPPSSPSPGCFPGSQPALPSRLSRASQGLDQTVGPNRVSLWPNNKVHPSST

- binding [1]: binds
- binding [2]: binds
B1: flotillin-2 (human, RCTE cells) (protein, UniProt Q14254 1-428)
chain: MGNCHTVGPNEALVVSGGCCGSDYKQYVFGGWAWAWWCISDTQRISLEIMTLQPRCEDVETAEGVALTVTGVAQVKIMTEKELLAVACEQFLGKNVQDIKNVVLQTLEGHLRSILGTLTVEQIYQDRDQFAKLVREVAAPDVGRMGIEILSFTIKDVYDKVDYLSSLGKTQTAVVQRDADIGVAEAERDAGIREAECKKEMLDVKFMADTKIADSKRAFELQKSAFSEEVNIKTAEAQLAYELQGAREQQKIRQEEIEIEVVQRKKQIAVEAQEILRTDKELIATVRRPAEAEAHRIQQIAEGEKVKQVLLAQAEAEKIRKIGEAEAAVIEAMGKAEAERMKLKAEAYQKYGDAAKMALVLEALPQIAAKIAAPLTKVDEIVVLSGDNSKVTSEVNRLLAELPASVHALTGVDLSKIPLIKKATGVQV

- binding [3]: binds
- binding [4]: binds
B2: flotillin-2 (mouse, MO6-G3 odontoblasts) (protein, UniProt Q60634 1-428)
chain: B1 chain with A372S, K422N, V426A

- binding [1]: binds
- binding [2]: binds
B3: OFD1 protein (human, RCTE cells) (protein, UniProt O75665 1-1012)
chain: MMAQSNMFTVADVLSQDELRKKLYQTFKDRGILDTLKTQLRNQLIHELMHPVLSGELQPRSISVEGSSLLIGASNSLVADHLQRCGYEYSLSVFFPESGLAKEKVFTMQDLLQLIKINPTSSLYKSLVSGSDKENQKGFLMHFLKELAEYHQAKESCNMETQTSSTFNRDSLAEKLQLIDDQFADAYPQRIKFESLEIKLNEYKREIEEQLRAEMCQKLKFFKDTEIAKIKMEAKKKYEKELTMFQNDFEKACQAKSEALVLREKSTLERIHKHQEIETKEIYAQRQLLLKDMDLLRGREAELKQRVEAFELNQKLQEEKHKSITEALRRQEQNIKSFEETYDRKLKNELLKYQLELKDDYIIRTNRLIEDERKNKEKAVHLQEELIAINSKKEELNQSVNRVKELELELESVKAQSLAITKQNHMLNEKVKEMSDYSLLKEEKLELLAQNKLLKQQLEESRNENLRLLNRLAQPAPELAVFQKELRKAEKAIVVEHEEFESCRQALHKQLQDEIEHSAQLKAQILGYKASVKSLTTQVADLKLQLKQTQTALENEVYCNPKQSVIDRSVNGLINGNVVPCNGEISGDFLNNPFKQENVLARMVASRITNYPTAWVEGSSPDSDLEFVANTKARVKELQQEAERLEKAFRSYHRRVIKNSAKSPLAAKSPPSLHLLEAFKNITSSSPERHIFGEDRVVSEQPQVGTLEERNDVVEALTGSAASRLRGGTSSRRLSSTPLPKAKRSLESEMYLEGLGRSHIASPSPCPDRMPLPSPTESRHSLSIPPVSSPPEQKVGLYRRQTELQDKSEFSDVDKLAFKDNEEFESSFESAGNMPRQLEMGGLSPAGDMSHVDAAAAAVPLSYQHPSVDQKQIEEQKEEEKIREQQVKERRQREERRQSNLQEVLERERRELEKLYQERKMIEESLKIKIKKELEMENELEMSNQEIKDKSAHSENPLEKYMKIIQQEQDQESADKSSKKMVQEGSLVDTLQSSDKVESLTGFSHEELDDSW

- binding [2]: binds
B4: polycystin-2 (human, RCTE cells) (protein, UniProt Q13563 1-968)
chain: MVNSSRVQPQQPGDAKRPPAPRAPDPGRLMAGCAAVGASLAAPGGLCEQRGLEIEMQRIRQAAARDPPAGAAASPSPPLSSCSRQAWSRDNPGFEAEEEEEEVEGEEGGMVVEMDVEWRPGSRRSAASSAVSSVGARSRGLGGYHGAGHPSGRRRRREDQGPPCPSPVGGGDPLHRHLPLEGQPPRVAWAERLVRGLRGLWGTRLMEESSTNREKYLKSVLRELVTYLLFLIVLCILTYGMMSSNVYYYTRMMSQLFLDTPVSKTEKTNFKTLSSMEDFWKFTEGSLLDGLYWKMQPSNQTEADNRSFIFYENLLLGVPRIRQLRVRNGSCSIPQDLRDEIKECYDVYSVSSEDRAPFGPRNGTAWIYTSEKDLNGSSHWGIIATYSGAGYYLDLSRTREETAAQVASLKKNVWLDRGTRATFIDFSVYNANINLFCVVRLLVEFPATGGVIPSWQFQPLKLIRYVTTFDFFLAACEIIFCFFIFYYVVEEILEIRIHKLHYFRSFWNCLDVVIVVLSVVAIGINIYRTSNVEVLLQFLEDQNTFPNFEHLAYWQIQFNNIAAVTVFFVWIKLFKFINFNRTMSQLSTTMSRCAKDLFGFAIMFFIIFLAYAQLAYLVFGTQVDDFSTFQECIFTQFRIILGDINFAEIEEANRVLGPIYFTTFVFFMFFILLNMFLAIINDTYSEVKSDLAQQKAEMELSDLIRKGYHKALVKLKLKKNTVDDISESLRQGGGKLNFDELRQDLKGKGHTDAEIEAIFTKYDQDGDQELTEHEHQQMRDDLEKEREDLDLDHSSLPRPMSSRSFPRSLDDSEEDDDEDSGHSSRRRGSISSGVSYEEFQVLVRRVDRMEHSIGSIVSKIDAVIVKLEIMERAKLKRREVLGRLLDGVAEDERLGRDSEIHREQMERLVREELERWESDDAASQISHGLGTPVGLNGQPRPRSSRPSSSQSTEGMEGAGGNGSSNVHV

- binding [3]: binds
- binding [4]: binds
B5: OFD1 protein (mouse, MO6-G3 odontoblasts) (protein, UniProt Q80Z25 1-1017)
chain: MAQSNMPHKSDVLSQDELRKKLYQTFKDRGVLDTLQTQLRNQLIHELMHPVLSGEVKPPSISVEGSALLIGASNSLVADHLQRCGYEYSLSVFFPESGLAKEKIFTMQDLLQLIRINPSSSLYKSLISGFDKENKKGFLMSFLKELAEYYQAKESCDAETQTSTTFPSQVSLAEKFQLIDAQFADGFPHRSKLESLETKLNEYKKEVQHQLQVEMCHKLKYFREAEITKVKMEERRKYEKELAEFQNEFERTCQAKNEALISQEKNSLERIKKHREMESKEIYAQRQLLLNDIALLRGREAELKERIETFELTQKLQEEKIKSEAEALERREQNLKNIEDTYDQKLKTELLKYQLELKDDYITRTNKLLEEERKNKEKTIHLQEELTVINSKKEELSKSVKHMKEVELELESVKAQFLAISKQNHLLNEKVREMSDYSQLKEEKVELQAQNKLLKLQLEETRNENLRLLDRITQPPPELVIFQKELQKTEKAMELEHKDFETHRQALEKQLQSEIENSAQLRTQIAEYDASVKRLTVQVAELKSQLKQTQIALENEVYRNPKHSLIHSLSGLLLSGKMAPHSEDKSGDFLNVPLEQNKVIAGAVMSRVPPYVNTATEASSPESDFEFIASSTKAKVRELEQEAERLEKAFRTYYQRATQNPSTSPQPAKSPPSVNSVAALRSIASSSMDRPVSAEDRVVSEQPLGDMLKEEMSDMSKAFMGSVVSRPRRTSSSTRLSSTPHPKSRRSLDNEMYLEGLGRLHMTSSSPLLDRVSASPAASPSPCPERTAQASPVPSRHSFSGLPEQNACLYQRQTETQDKSELSNVDKQSLKDEKFEPPFRWNKTEQFEAEGLHPAGDMPGIDFAVATQSSRLISYDYPSAVQSQTGEQDEQELWELHMKERRQREEQRHNERQEALERERRELGKLEQERRMIEESLKMEMEEELEKSVQDQKDKSAHCENTLEKYMKIIQQRQEESNADKSSKKSGKECSLVDMMMPSDKDESSPGFSHEEPDDMW

- binding [3]: binds
- binding [4]: binds
B6: polycystin-2 (mouse, MO6-G3 odontoblasts) (protein, UniProt O35245 1-966)
chain: MVNSRRVQPQPPGDAGRSPAPRASGPGRLVAGGAGLAVPGGLGEQRGLEIEMERIRQAAARDPPAGASASPSPPLSSCSRQAWSRDNPGFEAEEDDDDDEVEGEEGGMVVEMDVEWRPGSRRSASSSAVSSVGARGRGLGSYRGAAHLSGRRRRLEDQGAQCPSPAGGGDPLHRHLPLEGQPPRVAWAERLVRGLRGLWGTRLMEESNANREKYLKSVLRELVTYLFFLVVLCILTYGMMSSNVYYYTRTLSQLFIDTPVSKTEKTNFKTLSSMEDFWKFTEGSFLDGLYWKAQTSNHTQADNRSFIFYENLLLGVPRLRQLRVRNGSCSIPQDLRDEIKECYDVYSVSSEDRAPFGPRNGTAWMYTSEKELNGSSHWGIIASYSGAGYYLDLSRTREETAAQLAGLRRNFWLDRGTRAAFIDFSVYNANINLFCVVRLLAEFPATGGVVPSWQFQPVKLIRYVTAFDFFLAACEIIFCFFIIYYVVEEILEIRIHRLSYFRSFWNCLDVVIVVLSVVAMVINIYRMSNAEGLLQFLEDQNSFPNFEHVAYWQIQFNNISAVMVFLVWIKLFKFINFNRTMSQLSTTMSRCAKDLFGFTIMFSIIFLAYAQLAYLVFGTQVDDFSTFQECIFTQFRIILGDINFAEIEEANRVLGPLYFTTFVFFMFFILLNMFLAIINDSYSEVKSDLAQQKAEMELSDLIRKGCQKALVKLKLKRNTVDAISESLRQGGGKLNFDELRQDLKGKGHTDAEIEAIFTKYDQDGDQELTEREHQQMRDDLEKEREDLDLEHSSLPRPMSSRSFPRSLDDSEEEDDEDSGHSSRRRGSISSGVSYEEFQVLVRRVDRMEHSIGSIVSKIDAVIVKLEIMERAKLKRREVLGRLLDGVAEDARLGRDSEIHREQMERLVREELERWESDDAASQTGHGVSTQVGLGGQPHPRNPRPPSSQSAEGLEGGGGNGSANVHA
